Laboratory results as given in doi:10.1101/539015.
These are yes or no findings as the source states them, for the method shown. Binding seen in cells or lysates may run through a third protein. Here binding means that the protein was enriched with, or labelled near, the bait; the list need not be complete.

Chains of the proteins cited; added tags and fusions are not shown.
UniProt P90916: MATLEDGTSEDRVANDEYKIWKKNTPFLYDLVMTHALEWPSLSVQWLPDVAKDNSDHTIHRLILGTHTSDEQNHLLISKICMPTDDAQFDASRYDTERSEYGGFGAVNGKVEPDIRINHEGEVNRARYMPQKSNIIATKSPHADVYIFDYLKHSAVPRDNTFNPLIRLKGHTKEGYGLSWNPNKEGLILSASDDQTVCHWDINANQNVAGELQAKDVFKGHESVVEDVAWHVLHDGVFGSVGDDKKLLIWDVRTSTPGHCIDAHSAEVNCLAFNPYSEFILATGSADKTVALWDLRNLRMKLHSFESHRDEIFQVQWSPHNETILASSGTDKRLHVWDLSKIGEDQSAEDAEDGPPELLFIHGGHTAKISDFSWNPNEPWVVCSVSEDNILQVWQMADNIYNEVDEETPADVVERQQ
UniProt G5EBZ4: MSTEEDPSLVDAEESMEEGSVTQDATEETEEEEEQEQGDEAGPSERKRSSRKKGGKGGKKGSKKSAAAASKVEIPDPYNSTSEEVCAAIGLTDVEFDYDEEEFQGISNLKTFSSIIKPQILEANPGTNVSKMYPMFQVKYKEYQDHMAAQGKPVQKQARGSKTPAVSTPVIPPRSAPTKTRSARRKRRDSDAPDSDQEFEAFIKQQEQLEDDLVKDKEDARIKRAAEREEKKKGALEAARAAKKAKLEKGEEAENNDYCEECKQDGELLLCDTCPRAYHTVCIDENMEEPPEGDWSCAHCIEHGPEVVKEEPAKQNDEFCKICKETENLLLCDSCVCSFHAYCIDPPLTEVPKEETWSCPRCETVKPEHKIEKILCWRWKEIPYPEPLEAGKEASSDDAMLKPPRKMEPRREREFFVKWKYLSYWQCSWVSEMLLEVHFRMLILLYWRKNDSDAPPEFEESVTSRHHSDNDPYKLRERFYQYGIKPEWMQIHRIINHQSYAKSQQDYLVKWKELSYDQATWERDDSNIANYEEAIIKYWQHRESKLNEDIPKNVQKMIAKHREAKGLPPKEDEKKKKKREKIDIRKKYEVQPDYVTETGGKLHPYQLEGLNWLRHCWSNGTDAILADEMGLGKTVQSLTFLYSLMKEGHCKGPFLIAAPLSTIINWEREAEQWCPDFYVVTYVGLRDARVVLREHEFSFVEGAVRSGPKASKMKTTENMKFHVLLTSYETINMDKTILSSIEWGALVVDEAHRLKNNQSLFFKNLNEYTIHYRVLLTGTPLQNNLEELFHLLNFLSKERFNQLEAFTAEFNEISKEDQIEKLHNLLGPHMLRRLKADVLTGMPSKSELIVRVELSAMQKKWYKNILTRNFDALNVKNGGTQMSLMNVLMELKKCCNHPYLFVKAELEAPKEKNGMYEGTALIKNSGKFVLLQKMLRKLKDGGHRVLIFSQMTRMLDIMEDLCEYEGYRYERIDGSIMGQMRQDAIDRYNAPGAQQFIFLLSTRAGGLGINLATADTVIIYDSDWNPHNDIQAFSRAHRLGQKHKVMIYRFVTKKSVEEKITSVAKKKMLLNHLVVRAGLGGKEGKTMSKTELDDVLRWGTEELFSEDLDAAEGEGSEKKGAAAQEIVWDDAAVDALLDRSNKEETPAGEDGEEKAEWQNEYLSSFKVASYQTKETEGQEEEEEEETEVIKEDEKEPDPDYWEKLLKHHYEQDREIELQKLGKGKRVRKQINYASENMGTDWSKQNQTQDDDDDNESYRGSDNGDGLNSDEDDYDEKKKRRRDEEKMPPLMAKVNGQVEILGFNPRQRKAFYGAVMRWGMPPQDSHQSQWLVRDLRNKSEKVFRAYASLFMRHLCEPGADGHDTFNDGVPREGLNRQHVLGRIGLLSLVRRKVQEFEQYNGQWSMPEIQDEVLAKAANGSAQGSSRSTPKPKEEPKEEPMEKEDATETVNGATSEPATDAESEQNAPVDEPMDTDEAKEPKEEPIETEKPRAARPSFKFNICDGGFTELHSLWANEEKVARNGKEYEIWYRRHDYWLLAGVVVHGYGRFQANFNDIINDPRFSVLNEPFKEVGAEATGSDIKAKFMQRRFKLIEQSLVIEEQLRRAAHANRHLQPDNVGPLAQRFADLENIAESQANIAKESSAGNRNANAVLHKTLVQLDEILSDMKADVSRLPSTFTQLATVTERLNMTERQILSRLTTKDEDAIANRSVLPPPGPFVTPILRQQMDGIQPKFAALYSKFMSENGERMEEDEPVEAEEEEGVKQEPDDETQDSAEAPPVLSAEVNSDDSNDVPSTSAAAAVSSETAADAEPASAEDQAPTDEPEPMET
UniProt O17695: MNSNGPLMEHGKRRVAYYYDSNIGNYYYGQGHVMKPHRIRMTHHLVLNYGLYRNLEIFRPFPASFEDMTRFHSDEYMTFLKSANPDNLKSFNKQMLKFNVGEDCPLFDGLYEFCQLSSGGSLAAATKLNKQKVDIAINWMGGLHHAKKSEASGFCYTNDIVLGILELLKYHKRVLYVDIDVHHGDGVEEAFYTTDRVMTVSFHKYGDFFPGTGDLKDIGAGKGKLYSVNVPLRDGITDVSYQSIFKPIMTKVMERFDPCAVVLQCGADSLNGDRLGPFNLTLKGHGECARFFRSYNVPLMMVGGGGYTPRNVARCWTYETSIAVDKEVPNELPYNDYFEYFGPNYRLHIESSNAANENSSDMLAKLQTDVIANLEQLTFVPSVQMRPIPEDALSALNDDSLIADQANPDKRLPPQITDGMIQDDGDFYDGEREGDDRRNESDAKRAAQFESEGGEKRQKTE

Molecular target: LIN-53 (muscle-specific, FLAG-tagged; myo-3p::lin-53::2xFLAG) (C. elegans) (UniProt P90916)
Assay: affinity purification with mass spectrometry

binding | Substance
binds | LET-418 (from UniProt G5EBZ4 1-1829)
binds | HDA-1 (from UniProt O17695 1-461)
